Source: article PMC4673504
Results are given in words; binding and its absence hold for the method and conditions named. Binding seen in cells or lysates may run through a third protein. Binding calls can cover weak binding; strength is not graded here. For part of these data: Where a sequence is shown, tags or fusion partners need not be part of it.

B1: Xpress-tagged TAF1A (protein, UniProt Q15573 1-450)
chain: MSDFSEELKGPVTDDEEVETSVLSGAGMHFPWLQTYVETVAIGGKRRKDFAQTTSACLSFIQEALLKHQWQQAAEYMYSYFQTLEDSDSYKRQAAPEIIWKLGSEILFYHPKSNMESFNTFANRMKNIGVMNYLKISLQHALYLLHHGMLKDAKRNLSEAETWRHGENTSSREILINLIQAYKGLLQYYTWSEKKMELSKLDKDDYAYNAVAQDVFNHSWKTSANISALIKIPGVWDPFVKSYVEMLEFYGDRDGAQEVLTNYAYDEKFPSNPNAHIYLYNFLKRQKAPRSKLISVLKILYQIVPSHKLMLEFHTLLRKSEKEEHRKLGLEVLFGVLDFAGCTKNITAWKYLAKYLKNILMGNHLAWVQEEWNSRKNWWPGFHFSYFWAKSDWKEDTALACEKAFVAGLLLGKGCRYFRYILKQDHQILGKKIKRMKRSVKKYSIVNPRL
B2: Xpress-tagged TAF1B (protein, UniProt Q53T94 1-588)
chain: MDLEEAEEFKERCTQCAAVSWGLTDEGKYYCTSCHNVTERYQEVTNTDLIPNTQIKALNRGLKKKNNTEKGWDWYVCEGFQYILYQQAEALKNLGVGPELKNDVLHNFWKRYLQKSKQAYCKNPVYTTGRKPTVLEDNLSHSDWASEPELLSDVSCPPFLESGAESQSDIHTRKPFPVSKASQSETSVCSGSLDGVEYSQRKEKGIVKMTMPQTLAFCYLSLLWQREAITLSDLLRFVEEDHIPYINAFQHFPEQMKLYGRDRGIFGIESWPDYEDIYKKTVEVGTFLDLPRFPDITEDCYLHPNILCMKYLMEVNLPDEMHSLTCHVVKMTGMGEVDFLTFDPIAKMAKTVKYDVQAVAIIVVVLKLLFLLDDSFEWSLSNLAEKHNEKNKKDKPWFDFRKWYQIMKKAFDEKKQKWEEARAKYLWKSEKPLYYSFVDKPVAYKKREMVVNLQKQFSTLVESTATAGKKSPSSFQFNWTEEDTDRTCFHGHSLQGVLKEKGQSLLTKNSLYWLSTQKFCRCYCTHVTTYEESNYSLSYQFILNLFSFLLRIKTSLLHEEVSLVEKKLFEKKYSVKRKKSRSKKVRRH
B3: HA-tagged TAF1C (protein, UniProt Q15572 1-869)
chain: MDFPSSLRPALFLTGPLGLSDVPDLSFMCSWRDALTLPEAQPQNSENGALHVTKDLLWEPATPGPLPMLPPLIDPWDPGLTARDLLFRGGCRYRKRPRVVLDVTEQISRFLLDHGDVAFAPLGKLMLENFKLEGAGSRTKKKTVVSVKKLLQDLGGHQPWGCPWAYLSNRQRRFSILGGPILGTSVASHLAELLHEELVLRWEQLLLDEACTGGALAWVPGRTPQFGQLVYPAGGAQDRLHFQEVVLTPGDNPQFLGKPGRIQLQGPVRQVVTCTVQGESKALIYTFLPHWLTCYLTPGPFHPSSALLAVRSDYHCAVWKFGKQWQPTLLQAMQVEKGATGISLSPHLPGELAICSRSGAVCLWSPEDGLRQIYRDPETLVFRDSSSWRWADFTAHPRVLTVGDRTGVKMLDTQGPPGCGLLLFRLGAEASCQKGERVLLTQYLGHSSPKCLPPTLHLVCTQFSLYLVDERLPLVPMLKWNHGLPSPLLLARLLPPPRPSCVQPLLLGGQGGQLQLLHLAGEGASVPRLAGPPQSLPSRIDSLPAFPLLEPKIQWRLQERLKAPTIGLAAVVPPLPSAPTPGLVLFQLSAAGDVFYQQLRPQVDSSLRRDAGPPGDTQPDCHAPTASWTSQDTAGCSQWLKALLKVPLAPPVWTAPTFTHRQMLGSTELRREEEEGQRLGVLRKAMARGQLLLQRDLGSLPAAEPPPAPESGLEDKLSERLGEAWAGRGAAWWERQQGRTSEPGRQTRRPKRRTQLSSSFSLSGHVDPSEDTSSPHSPEWPPADALPLPPTTPPSQELTPDACAQGVPSEQRQMLRDYMAKLPPQRDTPGCATTPPHSQASSVRATRSQQHTPVLSSSQPLRKKPRMGF
B4: Xpress-tagged TAF1D (protein, UniProt Q9H5J8 1-278)
chain: MDKSGIDSLDHVTSDAVELANRSDNSSDSSLFKTQCIPYSPKGEKRNPIRKFVRTPESVHASDSSSDSSFEPIPLTIKAIFERFKNRKKRYKKKKKRRYQPTGRPRGRPEGRRNPIYSLIDKKKQFRSRGSGFPFLESENEKNAPWRKILTFEQAVARGFFNYIEKLKYEHHLKESLKQMNVGEDLENEDFDSRRYKFLDDDGSISPIEESTAEDEDATHLEDNECDIKLAGDSFIVSSEFPVRLSVYLEEEDITEEAALSKKRATKAKNTGQRGLKM
B5: TAF1C (endogenous) (protein, UniProt Q15572 1-869)
chain: B3 chain
B6: Eleven-nineteen lysine-rich leukemia protein (ELL) (protein, UniProt P55199 1-621)
chain: MAALKEDRSYGLSCGRVSDGSKVSVFHVKLTDSALRAFESYRARQDSVSLRPSIRFQGSQGHISIPQPDCPAEARTFSFYLSNIGRDNPQGSFDCIQQYVSSHGEVHLDCLGSIQDKITVCATDDSYQKARQSMAQAEEETRSRSAIVIKAGGRYLGKKVQFRKPAPGATDAVPSRKRATPINLASAIRKSGASAVSGGSGVSQRPFRDRVLHLLALRPYRKAELLLRLQKDGLTQADKDALDGLLQQVANMSAKDGTCTLQDCMYKDVQKDWPGYSEGDQQLLKRVLVRKLCQPQSTGSLLGDPAASSPPGERGRSASPPQKRLQPPDFIDPLANKKPRISHFTQRAQPAVNGKLGVPNGREALLPTPGPPASTDTLSSSTHLPPRLEPPRAHDPLADVSNDLGHSGRDCEHGEAAAPAPTVRLGLPLLTDCAQPSRPHGSPSRSKPKKKSKKHKDKERAAEDKPRAQLPDCAPATHATPGAPADTPGLNGTCSVSSVPTSTSETPDYLLKYAAISSSEQRQSYKNDFNAEYSEYRDLHARIERITRRFTQLDAQLRQLSQGSEEYETTRGQILQEYRKIKKTNTNYSQEKHRCEYLHSKLAHIKRLIAEYDQRQLQAWP

Each binder was assayed against FLAG-tagged GAL4–AF4-2C fusion protein (human) (assay: co-IP; fanChIP–WB: chromatin fraction of 293T or 293T–LUC cells (cytoskeleton buffer extraction, MNase, lysis buffer), anti-FLAG M2 beads, five washes, western blot; SL1 components endogenous or exogenously expressed (one by one or all together); for the MLL fusions with co-expressed xAF4 and MENIN-HA).

| Binder | binding |
| --- | --- |
| B1 | binds |
| B2 | binds |
| B3 | binds |
| B4 | binds |
| B5 | binds |

The binders below were run against FLAG-tagged GAL4–AF4-2N fusion protein (human) in the same assay as above.

| Binder | binding |
| --- | --- |
| B6 | binds |
